In all, about 200,000 compounds went through this assay and about 25 (0.01%) were called active. The shares of active, inactive and inconclusive entries below differ from those in the screen. Calls follow the shape of the dose curve; as a rule, active = well fitted inhibition curve with a large enough effect in the signal ratio, with a control signal flat (not every such curve was filed as active); inconclusive = small, poorly fitted or top-dose-only effect, or effect the other way, or a change in a side signal; inactive = flat fitted curve, though single readings scatter; the % refers to the signal ratio. Potencies beside an inconclusive call are fits to weak or partial responses and may not hold up.
experiment: qHTS Assay for Modulators of Lamin A Splicing; details: HeLa LMNA splicing GFP/RFP minigene ratio, 48 h; ratio change, negative = inhibition: at 46.1 µM (top of the series) unless noted
How it was run: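 Read-out is the ratio of GFP to DsRed2 object intensity, acquired by 488 nm laser-scanning cytometry on HeLa lamin A-EGFP minigene reporter cells. Compound incubation 48 hrs at 37 °C in Opti-MEM with 2% FBS; DMSO 0.5% final.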
% is scaled to controls: 0 for no effect and ±100 for the full control effect; potency is read from the fitted curve at half-maximal effect.

Row | Compound | ratio change, negative = inhibition | Potency
1 | CC(=O)Nc1cccc(NC(=O)CSc2nnnn2C(C)C)c1 | inactive: -4.48% | –
2 | CC(C)c1ccc(NC(=S)NCCc2c[nH]c3ccccc23)cc1 | – | inconclusive: 35.5 µM [fluorescent, single point]
3 | COc1ccc(NC(=S)N/N=C/c2cccn2Cc2ccc(F)cc2Cl)cc1 | inactive: -11% [at 46 µM] | –
4 | Cc1[nH]c2ccccc2c1C(=O)COC(=O)Cn1c(C)nc2ccccc21 | inconclusive: -23.5% | –
5 | Fc1ccc(NC(=S)Nc2ccccc2OC(F)F)cc1Cl | – | inconclusive: 20 µM [falling, partial curve, poor fit]
6 | COc1ccc(N2CCN(Cc3nc(N)nc(N4CCCc5ccccc54)n3)CC2)cc1 | inactive: -0.336% | –
7 | O=C1CN(C(=O)CSc2nnc(C3CC3)n2-c2ccccc2)c2ccccc2N1 | inconclusive: 0.171% | –
8 | Clc1ncnc2scc(-c3ccc(Br)cc3)c12 | – | inconclusive: 35.5 µM [falling, single point]
9 | COc1ccc(C)cc1NC(=O)CN1CCN(S(=O)(=O)c2ccc(Br)cc2)CC1 | inactive | –
10 | COc1ccc(N2CCN(Cc3cc4c(cc3O)CCC4)CC2)cc1 | – | inconclusive: 35.5 µM [falling, single point]
11 | Cc1cccc(-n2cnc3cc(C(=O)NC4CCCCCC4)ccc32)c1 | inconclusive: 17.6% [at 46 µM] | –
12 | CCOC(=O)c1ccc(NC(=O)c2c(NCc3cc(OC)ccc3OC)sc3c2CCC3)cc1 | inconclusive: -4.24% [at 46 µM] | –
13 | CC(=O)N1CCN(c2ccccc2NC(=O)c2ccc(-c3cccc([N+](=O)[O-])c3)o2)CC1 | inconclusive: -30.6% [at 46 µM] | –
14 | CC(=O)N=Nc1[nH]c(N)c2ccccc12 | inconclusive: -11.2% [at 46 µM] | –
15 | COc1cc(OC)c(OC)cc1/C=C/c1nc2ccccc2c(=O)n1-c1ccc(Br)c(C)c1 | – | inconclusive: 11.2 µM [falling, single point]
16 | COc1ccc(CCNC(=O)C(=O)NCC(c2cccnc2)N2CCN(c3ccccc3)CC2)cc1 (centres undefined) | inactive: -5.52% [at 46 µM] | –
17 | Cn1c(=O)c2cc(S(=O)(=O)NC(C(=O)N3CCCCCC3)c3ccccc3)ccc2n(C)c1=O (centres undefined) | inactive: 2.34% | –
18 | CCCN1CCN(CCCNC(=O)Cn2c(-c3cccs3)cc3cc(Cl)ccc32)CC1 | inconclusive: -17.1% [at 46 µM] | –
19 | NS(=O)(=O)c1cccc(NC(=O)CSc2nc3ccc(Cl)cc3[nH]2)c1 | inconclusive: 17.5% [at 9.22 µM] | –
20 | Cc1ccc2[nH]c3c(=O)n(CCc4cnc[nH]4)cnc3c2c1 | inconclusive: 11% [at 0.0737 µM] | –
21 | C[C@@H](Oc1ccc(Oc2cnc3ccc(Cl)cc3n2)cc1)C(=O)O | – | inconclusive: 0.251 µM [inhibitor, full curve, poor fit]
22 | O=C(Nc1ccc(F)c([N+](=O)[O-])c1)c1cccs1 | – | inconclusive: 39.8 µM [inhibitor, partial curve, poor fit]
23 | CCC(c1nnnn1CCOC)N1CCN(C(=O)c2ccco2)CC1 (centres undefined) | – | inconclusive: 14.1 µM [cytotoxic, partial curve]
24 | Cc1c(Cl)cccc1-n1nc(C)c2c(C)cc(=O)n(CC(=O)NCc3ccccc3)c21 | inconclusive: 30.6% [at 46 µM] | –
25 | Cc1cccc(C(=O)Nc2cccc(OCc3cc(=O)n4ccccc4n3)c2)c1 | inactive: -5.87% [at 46 µM] | –
26 | CCCN(CCC)C(=O)CSc1nnc2cc(C)c3ccccc3n12 | inconclusive: 18.4% [at 46 µM] | –
27 | O=C(COc1ccccc1)Nc1ccc(S(=O)(=O)N2CCCC2)cc1 | inactive: 4.43% | –

Row | Compound | ratio change, negative = inhibition | Potency
28 | Cn1c(S(=O)(=O)Cc2ccc(Cl)cc2)nc2ccccc21 | inconclusive: -29.3% [at 46 µM] | –
29 | OC(COc1cccc(OCC(O)CN2CCCC2)c1)CN1CCCC1 (centres undefined) | inconclusive: 3.44% | –
30 | CC(C)CCNC(=O)C(CC(C)C)N(Cc1ccc2c(c1)OCO2)C(=O)c1snc(C(N)=O)c1N (centres undefined) | inconclusive: 12.4% [at 46 µM] | –
31 | COc1ccc(Cn2c3nc4ccccc4nc3c3c(=O)n(Cc4ccco4)c(C)nc32)cc1 | inconclusive: 35.2% | –
32 | CC(C)(C)c1ccc(Cn2nnc3c(=O)[nH]c(C4CCCN(C(=O)Cc5cccs5)C4)nc32)cc1 (centres undefined) | – | inconclusive: 25.1 µM [cytotoxic, partial curve]
33 | Clc1ccc(OCc2nnc(SCc3nnc(-c4ccccc4)o3)o2)c(Cl)c1 | inconclusive: 10.2% | –
34 | COc1cc(/C=N/N=C2/NC(=O)C(CC(=O)O)S2)ccc1OCc1cccc(Cl)c1 (centres undefined) | inconclusive: -6.93% [at 46 µM] | –
35 | Cc1cccc(S(=O)(=O)Nc2ccc(-c3nc4ccc(C)cc4s3)cc2)c1 | – | inconclusive: 35.5 µM [fluorescent, single point]
36 | N#CCCSc1ccccc1NC(=O)c1ccc(S(=O)(=O)N2CCCC2)cc1 | inactive: -1.32% | –
37 | CCOP(=O)(OCC)C(NC(=O)Nc1ccc(C)cc1)C(N)=O (centres undefined) | inconclusive: 2.19% [at 46 µM] | –
38 | Cc1nn(C)cc1S(=O)(=O)Nc1ccc2c(c1)OCCO2 | inconclusive: 18.3% [at 46 µM] | –
39 | COc1ccccc1CNc1ncnc2cc(Cl)ccc12 | inconclusive: 14.7% [at 46 µM] | –
40 | COc1ccc(C(=O)N=c2sc3ccccc3n2C)cc1OC | inconclusive: 24% [at 46 µM] | –
41 | COc1ccc(C=NCCCN2CCOCC2)cc1 | inactive: -5.33% | –
42 | COc1ccc(C(NC(=O)c2cccnc2)c2cc(Cl)c3cccnc3c2O)cc1OC (centres undefined) | – | inconclusive: 12.6 µM [cytotoxic, partial curve]
43 | COC(=O)C1=CN(Cc2cccs2)C=C(C(=O)OC)C1c1cccc(Cl)c1 | inconclusive: -6.12% [at 46 µM] | –
44 | CC1CCN(S(=O)(=O)c2cc(Br)cc(C(=O)NC3=NCCS3)c2)CC1 | inconclusive: -35.3% | –
45 | CCOc1ccc(NC(=O)NCC2CCN(c3ccc(OC)cc3)C2)cc1 (centres undefined) | inactive: -0.265% | –
46 | OC(CN1CCC(Cc2ccc(F)cc2)CC1)c1ccc(Cl)cc1 (centres undefined) | inconclusive: -30.9% | –
47 | C=CCn1c(O)c(N=NC(=O)OC(C)(C)C)c2ccccc21 | inactive: -8.01% | –
48 | CC1CN(c2nc3ccccc3nc2C(C#N)C(=O)NC2CCCCC2)CC(C)O1 (centres undefined) | inconclusive: 14.9% | –
49 | Cc1ccc2nc(C3CCN(CC(=O)N4CCCCCC4)CC3)[nH]c2c1 | inactive: 1.83% | –
50 | COc1ccc(NS(=O)(=O)c2cc(NC(=O)c3cnccn3)ccc2N2CCCC2)cc1 | inconclusive: -23.9% | –
51 | O=C(COC(=O)c1cc(S(=O)(=O)N2CCOCC2)ccc1Cl)Nc1ccc2c(c1)OCO2 | inactive: 10.1% | –
52 | CCC(C)c1ccccc1NC(=S)Nc1cccnc1 (centres undefined) | inconclusive: 7.47% | –
53 | O=C(NC(=S)N1CCN(c2ccc([N+](=O)[O-])cc2)CC1)c1ccc(F)cc1 | inconclusive: -24.8% | –
54 | O=C1C(=O)N(CNc2cccnc2)c2ccccc21 | inactive: -2.74% | –

Fetched by structure from the list above, four records:
Row | Compound | ratio change, negative = inhibition | Potency
28 | Cn1c(S(=O)(=O)Cc2ccc(Cl)cc2)nc2ccccc21 | inconclusive: -29.3% [at 46 µM] | –
54 | O=C1C(=O)N(CNc2cccnc2)c2ccccc21 | inactive: -2.74% | –
44 | CC1CCN(S(=O)(=O)c2cc(Br)cc(C(=O)NC3=NCCS3)c2)CC1 | inconclusive: -35.3% | –
51 | O=C(COC(=O)c1cc(S(=O)(=O)N2CCOCC2)ccc1Cl)Nc1ccc2c(c1)OCO2 | inactive: 10.1% | –

(list continues)

Row | Compound | ratio change, negative = inhibition | Potency
55 | COc1ccc(-c2nnc(SCc3cc(C)cc(C)c3)o2)cc1 | inconclusive: -37.9% | –
56 | COC(=O)c1[nH]c2ccccc2c1NC(=O)CN1CC(C)OC(C)C1 (centres undefined) | inconclusive: -0.523% | –
57 | CCOc1ccc(-c2nnc(-c3ccncc3)o2)cc1OCC | inconclusive: 10.7% [at 46 µM] | –
58 | NS(=O)(=O)c1cc2c(cc1Cl)NC(C(Cl)Cl)NS2(=O)=O (centres undefined) | inconclusive: 3.21% | –
59 | O=C(Nc1ccc(F)cc1)c1nc[nH]c1C(=O)Nc1ccccc1[N+](=O)[O-] | inconclusive: -8.46% | –
60 | CCCCc1cc2c(cn1)=C(OC(=O)c1cccs1)C(C)(OC(=O)CC)C(=O)C=2 (centres undefined) | inconclusive: -1.03% [at 9.22 µM] | –
61 | CCC(C)(C)n1nnnc1C(c1ccncc1)N1CCC(C)CC1 (centres undefined) | inactive: -2.3% | –
62 | C[C@@H]1/C(=N/O)CC2C[C@@H]1C2(C)C | inactive: -16.4% | –
63 | Cc1ccc(CSc2nc3cccnc3n2Cc2ccc(C(=O)NCCc3cccs3)cc2)cc1 | inactive: -5.53% [at 46 µM] | –
64 | CN(Cc1ccco1)c1ccnc(-c2ccoc2)n1 | inconclusive: 18.1% | –
65 | Cc1nn(-c2ccc(C(=O)O)cc2)c(C)c1Cl | inconclusive: -4% [at 46 µM] | –
66 | CCOc1ccc(CN(C)CC(=O)Nc2ccc([N+](=O)[O-])cc2Cl)cc1 | – | inconclusive: 35.5 µM [falling, single point]
67 | N#Cc1c(N)nc2c(c1-c1ccccc1)CCC2 | inconclusive: 58.1% [at 46 µM] | –
68 | Cc1cc(NC(=S)N(CCN2CCCCC2)Cc2ccco2)ccc1Cl | inconclusive: -17% [at 46 µM] | –
69 | NNc1nc(-c2ccccc2)cc(-c2ccccc2O)n1 | inconclusive: 0.899% | –
70 | COc1ccc(-c2noc(CCC(=O)NCCN3CCN(c4ccccc4F)CC3)n2)cc1 | inconclusive: -32.9% | –
71 | CCOC(=O)c1ccc(NC(=O)c2c(NCc3cccc(OC)c3OC)sc3c2CCC3)cc1 | inconclusive: 3.44% [at 46 µM] | –
72 | O=C(CCNC(=O)c1ccccc1Cl)Nc1ccc2c(c1)OCO2 | inactive: -3.31% | –
73 | CCCn1nnnc1NC(=O)COc1ccc(Br)cc1 | inconclusive: -30.8% [at 46 µM] | –
74 | CN(C)C(CNS(=O)(=O)c1ccc(F)cc1)c1cccnc1 (centres undefined) | inactive: 0.512% | –
75 | COc1ccccc1C/C(N)=N/OC(=O)c1cccc([N+](=O)[O-])c1C | inconclusive: 8.58% | –
76 | CC(C)n1cc(CN2CCN(CCc3ccccc3)C(CCO)C2)cn1 (centres undefined) | inconclusive: 4.7% [at 46 µM] | –
77 | CN(C)c1ccc(N=C/C=C2/N(C)c3ccccc3C2(C)C)cc1 | inconclusive: -32.1% | –
78 | Cn1nc(C(=O)Nc2ccc(S(=O)(=O)N3CCOCC3)cc2)c2ccccc2c1=O | inconclusive: -1.44% [at 46 µM] | –
79 | C#Cc1cccc(Nc2ncnc3cc(OCCOC)c(OCCOC)cc23)c1 | – | inconclusive: 10 µM [inhibitor, partial curve, poor fit]
